Reference: paper PMC3510454, “Elba, a novel developmentally regulated chromatin boundary factor is a hetero-tripartite DNA binding complex”

Tested on: native Elba1 + native Elba2 + native Elba3
Assay: DNA affinity pull-down
Conditions: affinity beads: HBB (10 mM HEPES pH 7.4, 0.1 mM EDTA, 10% glycerol), 0.15 M KCl, 0.05% NP-40, 1 mM DTT, protein in an extract, label: 5' biotin on bottom …

| Sequence | binding result (eluted at 1.0 M KCl) | binding result (bulk unbound, small amount in 1.0 M KCl eluate) |
| --- | --- | --- |
| TGCAGCGCCCAATAAGCAAATGCAGCGCCCAATAAGCAAATGCAGCGCCCAATAAGCAAATG / AGCATTTGCTTATTGGGCGCTGCATTTGCTTATTGGGCGCTGCATTTGCTTATTGGGCGCTGCA [3x Elba-site] | binds |  |
| TGCAGCGCCCCCGAAGCAAATGCAGCGCCCCCGAAGCAAATGCAGCGCCCCCGAAGCAAATG / AGCATTTGCTTCGGGGGCGCTGCATTTGCTTCGGGGGCGCTGCATTTGCTTCGGGGGCGCTGCA [3x Elba-M3-site] |  | binds more weakly |

The exact form of at least one protein or probe is not confirmed. Results from cells or extracts need not show a direct contact. A weaker result is weaker than the reference pair of the same experiment.
